Measured values from paper PMC10252469.

Target: OsMRG702 (MORF-RELATED GENE702), yeast two-hybrid fusion (rice (Oryza sativa L.)) (UniProt Q2R2X7)
Test: two-hybrid; pGADT7 and pGBKT7 constructs in yeast AH109 and YH187, mated; interaction observed on SD-Leu/-Trp and SD-His/-Leu/-Trp/-Ade solid medium, 4 days at 30 °C

binding: binds
Substance: OsMRGBP, yeast two-hybrid fusion (from UniProt Q6L528)

No constants are given. Whether binding was seen depends on the method and setting. A result given as binding can be weak or reduced; the word gives no strength.
